Laboratory results: doi:10.1101/2022.10.24.513562
No constants are given. Whether binding was seen depends on the method and setting. In cells and extracts the contact can be indirect. Some binding calls cover weakened binding; strength is not graded here.

Amino acid sequences for entries named in this document (tags omitted).
UniProt Q14157: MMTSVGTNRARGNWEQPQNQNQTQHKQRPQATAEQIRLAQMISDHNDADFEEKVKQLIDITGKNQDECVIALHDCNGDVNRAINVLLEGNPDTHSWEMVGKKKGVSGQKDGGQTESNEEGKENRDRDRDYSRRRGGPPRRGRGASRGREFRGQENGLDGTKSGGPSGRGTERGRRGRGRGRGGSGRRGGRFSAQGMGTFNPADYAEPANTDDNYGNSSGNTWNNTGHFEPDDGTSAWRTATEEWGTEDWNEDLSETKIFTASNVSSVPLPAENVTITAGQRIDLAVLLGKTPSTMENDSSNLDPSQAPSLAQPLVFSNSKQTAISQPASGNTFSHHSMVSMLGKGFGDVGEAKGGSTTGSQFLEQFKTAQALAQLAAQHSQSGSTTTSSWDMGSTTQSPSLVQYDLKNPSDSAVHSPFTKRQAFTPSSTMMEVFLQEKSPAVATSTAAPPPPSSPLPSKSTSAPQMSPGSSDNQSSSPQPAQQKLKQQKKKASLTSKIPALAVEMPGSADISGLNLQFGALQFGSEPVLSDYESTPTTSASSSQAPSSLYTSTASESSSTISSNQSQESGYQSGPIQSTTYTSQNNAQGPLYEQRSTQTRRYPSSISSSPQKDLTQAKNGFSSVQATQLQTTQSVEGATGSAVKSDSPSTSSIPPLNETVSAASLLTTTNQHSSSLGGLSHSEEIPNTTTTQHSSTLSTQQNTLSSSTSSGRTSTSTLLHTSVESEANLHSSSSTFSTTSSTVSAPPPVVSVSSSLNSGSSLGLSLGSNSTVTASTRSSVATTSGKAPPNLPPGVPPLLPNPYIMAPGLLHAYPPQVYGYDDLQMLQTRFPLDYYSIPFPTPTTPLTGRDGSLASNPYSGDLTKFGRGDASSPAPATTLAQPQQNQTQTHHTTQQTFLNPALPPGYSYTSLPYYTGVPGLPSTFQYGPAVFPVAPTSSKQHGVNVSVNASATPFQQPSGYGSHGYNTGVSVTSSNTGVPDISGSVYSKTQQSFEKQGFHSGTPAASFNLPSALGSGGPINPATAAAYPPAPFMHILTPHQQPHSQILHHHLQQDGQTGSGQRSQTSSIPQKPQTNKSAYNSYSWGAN
UniProt Q96GD4: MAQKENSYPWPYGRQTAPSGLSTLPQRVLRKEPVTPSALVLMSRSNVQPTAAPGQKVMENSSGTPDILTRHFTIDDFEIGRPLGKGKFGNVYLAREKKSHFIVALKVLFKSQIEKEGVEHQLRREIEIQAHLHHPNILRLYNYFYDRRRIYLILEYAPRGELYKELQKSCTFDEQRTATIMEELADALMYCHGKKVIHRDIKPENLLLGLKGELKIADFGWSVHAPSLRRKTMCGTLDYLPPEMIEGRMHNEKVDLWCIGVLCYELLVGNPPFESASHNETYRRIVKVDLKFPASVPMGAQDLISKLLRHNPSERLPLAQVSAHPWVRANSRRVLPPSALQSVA
UniProt P53350: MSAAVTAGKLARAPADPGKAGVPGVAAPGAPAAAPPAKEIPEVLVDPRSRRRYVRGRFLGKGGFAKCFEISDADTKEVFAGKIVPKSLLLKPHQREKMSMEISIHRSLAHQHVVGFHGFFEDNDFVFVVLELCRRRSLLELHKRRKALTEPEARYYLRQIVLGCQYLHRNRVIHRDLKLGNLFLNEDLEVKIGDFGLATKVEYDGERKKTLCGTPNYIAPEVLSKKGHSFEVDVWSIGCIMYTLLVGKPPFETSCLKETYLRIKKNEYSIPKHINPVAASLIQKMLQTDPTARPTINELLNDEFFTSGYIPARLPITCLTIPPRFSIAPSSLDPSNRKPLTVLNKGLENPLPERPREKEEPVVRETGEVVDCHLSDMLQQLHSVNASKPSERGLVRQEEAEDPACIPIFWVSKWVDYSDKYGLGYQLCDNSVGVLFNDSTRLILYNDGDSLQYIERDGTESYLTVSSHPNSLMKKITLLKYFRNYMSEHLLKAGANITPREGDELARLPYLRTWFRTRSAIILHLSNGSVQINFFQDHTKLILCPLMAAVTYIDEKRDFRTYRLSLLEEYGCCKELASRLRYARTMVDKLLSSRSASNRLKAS

B1: Kelch-like protein 22 (KLHL22) (protein, UniProt Q53GT1 1-634)
chain: MAEEQEFTQLCKLPAQPSHPHCVNNTYRSAQHSQALLRGLLALRDSGILFDVVLVVEGRHIEAHRILLAASCDYFRGMFAGGLKEMEQEEVLIHGVSYNAMCQILHFIYTSELELSLSNVQETLVAACQLQIPEIIHFCCDFLMSWVDEENILDVYRLAELFDLSRLTEQLDTYILKNFVAFSRTDKYRQLPLEKVYSLLSSNRLEVSCETEVYEGALLYHYSLEQVQADQISLHEPPKLLETVRFPLMEAEVLQRLHDKLDPSPLRDTVASALMYHRNESLQPSLQSPQTELRSDFQCVVGFGGIHSTPSTVLSDQAKYLNPLLGEWKHFTASLAPRMSNQGIAVLNNFVYLIGGDNNVQGFRAESRCWRYDPRHNRWFQIQSLQQEHADLSVCVVGRYIYAVAGRDYHNDLNAVERYDPATNSWAYVAPLKREVYAHAGATLEGKMYITCGRRGEDYLKETHCYDPGSNTWHTLADGPVRRAWHGMATLLNKLYVIGGSNNDAGYRRDVHQVACYSCTSGQWSSVCPLPAGHGEPGIAVLDNRIYVLGGRSHNRGSRTGYVHIYDVEKDCWEEGPQLDNSISGLAACVLTLPRSLLLEPPRGTPDRSQADPDFASEVMSVSDWEEFDNSSED

Target: Ubiquitin-Binding Protein 2-Like (UBAP2L) (human (endogenous in HeLa)) (UniProt Q14157)
Test: co-IP

binding | Molecule
no binding | Aurora B (AurB) (from UniProt Q96GD4 1-344)
binds | Polo-like kinase 1 (PLK1) (from UniProt P53350 1-603)
binds | B1
